Some of the results follow.
Tests used:
Assay in all cases: log2 fold change, soluble protein after heating vs DMSO (PISA); higher = thermal stabilisation; K562 lysate, 10 uM; active = over 0.2 and 3.5 SD of the protein, either way, in both replicates (recomputed)
alvocidib = compound: CN1CC[C@H](c2c(O)cc(O)c3c(=O)cc(-c4ccccc4Cl)oc23)[C@H](O)C1 [alvocidib]
Summary of the method: (§1)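 Quantification was by TMTpro 16plex LC-MS/MS with equalised channel sums, applied to the supernatant after 21,000xg for 90 min. Samples were crude K562 extract at 1 mg/mL protein in PBS pH 7.4 with 1 mM MgCl2, treated with 10 μM compound for 30 min, heated for 3 min across 48°C-58°C, pooled and brought to 0.5% NP-40 at 4°C. Values are log-two fold changes in thermal stability relative to solvent controls, from duplicates.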

Chains of the proteins cited; added tags and fusions are not shown. Lines headed by an entry give the natural chain unless they say otherwise; changes in a name come on top.
UniProt Q13492: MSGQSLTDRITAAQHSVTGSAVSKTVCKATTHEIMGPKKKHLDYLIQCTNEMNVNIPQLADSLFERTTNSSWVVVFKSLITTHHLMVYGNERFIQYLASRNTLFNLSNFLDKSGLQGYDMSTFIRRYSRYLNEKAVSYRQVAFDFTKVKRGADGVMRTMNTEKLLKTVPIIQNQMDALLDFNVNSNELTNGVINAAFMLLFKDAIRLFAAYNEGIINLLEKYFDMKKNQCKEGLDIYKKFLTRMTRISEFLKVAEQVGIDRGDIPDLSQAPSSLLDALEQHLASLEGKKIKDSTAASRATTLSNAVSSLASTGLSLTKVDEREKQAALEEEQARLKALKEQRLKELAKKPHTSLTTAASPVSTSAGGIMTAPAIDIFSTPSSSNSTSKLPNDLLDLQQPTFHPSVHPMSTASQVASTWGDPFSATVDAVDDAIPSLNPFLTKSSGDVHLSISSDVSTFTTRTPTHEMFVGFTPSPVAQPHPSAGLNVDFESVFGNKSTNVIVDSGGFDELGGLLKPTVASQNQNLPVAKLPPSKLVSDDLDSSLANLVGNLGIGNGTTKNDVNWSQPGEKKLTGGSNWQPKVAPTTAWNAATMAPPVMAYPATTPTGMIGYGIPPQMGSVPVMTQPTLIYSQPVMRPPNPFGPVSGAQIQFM
UniProt Q8NHP8: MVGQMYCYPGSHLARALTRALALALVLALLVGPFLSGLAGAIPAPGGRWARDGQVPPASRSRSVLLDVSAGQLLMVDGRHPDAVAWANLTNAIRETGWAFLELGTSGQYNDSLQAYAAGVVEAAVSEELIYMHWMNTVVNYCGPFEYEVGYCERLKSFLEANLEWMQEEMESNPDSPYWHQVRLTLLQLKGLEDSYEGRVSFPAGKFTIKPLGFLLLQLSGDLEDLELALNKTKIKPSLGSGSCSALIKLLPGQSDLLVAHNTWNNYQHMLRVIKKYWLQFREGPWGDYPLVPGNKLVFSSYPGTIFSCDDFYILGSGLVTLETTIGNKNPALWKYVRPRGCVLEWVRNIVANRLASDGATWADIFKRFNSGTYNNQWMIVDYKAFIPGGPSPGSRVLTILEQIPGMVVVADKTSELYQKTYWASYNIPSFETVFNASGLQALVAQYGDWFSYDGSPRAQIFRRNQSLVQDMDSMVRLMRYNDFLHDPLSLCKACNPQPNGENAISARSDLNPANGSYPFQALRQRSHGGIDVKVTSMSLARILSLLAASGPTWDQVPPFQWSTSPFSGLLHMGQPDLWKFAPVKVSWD
UniProt O00625: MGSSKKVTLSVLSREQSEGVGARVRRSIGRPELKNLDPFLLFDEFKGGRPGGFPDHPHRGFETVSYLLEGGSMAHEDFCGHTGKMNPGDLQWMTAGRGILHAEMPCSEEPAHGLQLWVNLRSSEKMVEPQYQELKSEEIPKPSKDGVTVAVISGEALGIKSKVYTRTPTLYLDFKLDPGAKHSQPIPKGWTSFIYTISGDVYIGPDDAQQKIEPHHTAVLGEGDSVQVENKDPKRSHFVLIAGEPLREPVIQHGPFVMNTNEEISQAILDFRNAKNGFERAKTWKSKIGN
UniProt P14618, whole entry, looked up: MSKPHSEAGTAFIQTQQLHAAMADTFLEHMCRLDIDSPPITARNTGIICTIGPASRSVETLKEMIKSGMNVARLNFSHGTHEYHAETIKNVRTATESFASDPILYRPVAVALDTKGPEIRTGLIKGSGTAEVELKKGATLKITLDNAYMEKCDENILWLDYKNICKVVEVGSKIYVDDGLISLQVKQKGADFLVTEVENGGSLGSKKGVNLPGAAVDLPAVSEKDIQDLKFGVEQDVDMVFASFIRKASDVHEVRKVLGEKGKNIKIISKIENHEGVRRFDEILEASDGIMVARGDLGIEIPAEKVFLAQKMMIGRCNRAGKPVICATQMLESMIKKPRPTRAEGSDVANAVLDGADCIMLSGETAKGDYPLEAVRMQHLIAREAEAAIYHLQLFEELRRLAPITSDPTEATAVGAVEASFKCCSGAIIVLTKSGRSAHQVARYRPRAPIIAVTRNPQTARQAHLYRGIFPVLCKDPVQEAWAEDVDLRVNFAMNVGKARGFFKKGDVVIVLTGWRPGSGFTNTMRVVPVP
UniProt P12273: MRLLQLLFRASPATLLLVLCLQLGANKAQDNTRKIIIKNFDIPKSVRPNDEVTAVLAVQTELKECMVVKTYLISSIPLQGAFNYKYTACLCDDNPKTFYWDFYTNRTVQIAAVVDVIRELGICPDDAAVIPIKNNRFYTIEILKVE
UniProt Q9GZP4: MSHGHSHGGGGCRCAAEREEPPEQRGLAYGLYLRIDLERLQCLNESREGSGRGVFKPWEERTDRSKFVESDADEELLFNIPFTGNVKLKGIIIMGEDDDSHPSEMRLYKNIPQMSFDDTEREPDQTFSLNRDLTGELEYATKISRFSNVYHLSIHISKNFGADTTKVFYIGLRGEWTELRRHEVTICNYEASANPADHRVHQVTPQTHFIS
UniProt Q6PCE3: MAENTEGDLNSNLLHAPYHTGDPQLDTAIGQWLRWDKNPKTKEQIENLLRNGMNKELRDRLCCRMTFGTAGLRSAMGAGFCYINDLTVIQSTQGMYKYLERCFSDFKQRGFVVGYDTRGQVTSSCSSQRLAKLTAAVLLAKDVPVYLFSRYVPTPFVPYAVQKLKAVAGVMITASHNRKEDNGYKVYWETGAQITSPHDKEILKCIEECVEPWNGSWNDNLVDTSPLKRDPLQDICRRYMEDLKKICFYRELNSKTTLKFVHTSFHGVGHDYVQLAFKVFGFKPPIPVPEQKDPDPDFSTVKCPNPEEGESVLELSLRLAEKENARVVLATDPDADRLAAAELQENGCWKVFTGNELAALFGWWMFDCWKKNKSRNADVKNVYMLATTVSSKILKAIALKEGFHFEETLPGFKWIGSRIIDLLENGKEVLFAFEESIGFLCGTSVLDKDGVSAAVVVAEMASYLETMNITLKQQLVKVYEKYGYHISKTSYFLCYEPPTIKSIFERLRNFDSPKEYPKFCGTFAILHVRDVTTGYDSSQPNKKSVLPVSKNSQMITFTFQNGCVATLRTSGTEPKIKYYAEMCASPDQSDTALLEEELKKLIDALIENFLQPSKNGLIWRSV
UniProt O43175: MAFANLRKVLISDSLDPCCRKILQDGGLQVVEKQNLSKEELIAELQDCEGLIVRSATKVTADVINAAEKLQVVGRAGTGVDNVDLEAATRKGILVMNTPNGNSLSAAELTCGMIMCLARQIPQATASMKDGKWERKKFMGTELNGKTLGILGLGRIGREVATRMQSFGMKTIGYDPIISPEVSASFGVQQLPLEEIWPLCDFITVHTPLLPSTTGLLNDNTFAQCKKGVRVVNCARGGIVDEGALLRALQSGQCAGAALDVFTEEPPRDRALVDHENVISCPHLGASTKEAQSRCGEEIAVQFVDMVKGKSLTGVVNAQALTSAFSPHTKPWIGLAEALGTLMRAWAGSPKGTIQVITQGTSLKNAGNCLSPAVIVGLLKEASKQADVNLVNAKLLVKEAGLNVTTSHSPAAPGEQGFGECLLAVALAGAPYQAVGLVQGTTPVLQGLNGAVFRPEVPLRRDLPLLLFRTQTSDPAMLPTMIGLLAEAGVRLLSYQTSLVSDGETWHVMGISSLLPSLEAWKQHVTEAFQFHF
UniProt P42338: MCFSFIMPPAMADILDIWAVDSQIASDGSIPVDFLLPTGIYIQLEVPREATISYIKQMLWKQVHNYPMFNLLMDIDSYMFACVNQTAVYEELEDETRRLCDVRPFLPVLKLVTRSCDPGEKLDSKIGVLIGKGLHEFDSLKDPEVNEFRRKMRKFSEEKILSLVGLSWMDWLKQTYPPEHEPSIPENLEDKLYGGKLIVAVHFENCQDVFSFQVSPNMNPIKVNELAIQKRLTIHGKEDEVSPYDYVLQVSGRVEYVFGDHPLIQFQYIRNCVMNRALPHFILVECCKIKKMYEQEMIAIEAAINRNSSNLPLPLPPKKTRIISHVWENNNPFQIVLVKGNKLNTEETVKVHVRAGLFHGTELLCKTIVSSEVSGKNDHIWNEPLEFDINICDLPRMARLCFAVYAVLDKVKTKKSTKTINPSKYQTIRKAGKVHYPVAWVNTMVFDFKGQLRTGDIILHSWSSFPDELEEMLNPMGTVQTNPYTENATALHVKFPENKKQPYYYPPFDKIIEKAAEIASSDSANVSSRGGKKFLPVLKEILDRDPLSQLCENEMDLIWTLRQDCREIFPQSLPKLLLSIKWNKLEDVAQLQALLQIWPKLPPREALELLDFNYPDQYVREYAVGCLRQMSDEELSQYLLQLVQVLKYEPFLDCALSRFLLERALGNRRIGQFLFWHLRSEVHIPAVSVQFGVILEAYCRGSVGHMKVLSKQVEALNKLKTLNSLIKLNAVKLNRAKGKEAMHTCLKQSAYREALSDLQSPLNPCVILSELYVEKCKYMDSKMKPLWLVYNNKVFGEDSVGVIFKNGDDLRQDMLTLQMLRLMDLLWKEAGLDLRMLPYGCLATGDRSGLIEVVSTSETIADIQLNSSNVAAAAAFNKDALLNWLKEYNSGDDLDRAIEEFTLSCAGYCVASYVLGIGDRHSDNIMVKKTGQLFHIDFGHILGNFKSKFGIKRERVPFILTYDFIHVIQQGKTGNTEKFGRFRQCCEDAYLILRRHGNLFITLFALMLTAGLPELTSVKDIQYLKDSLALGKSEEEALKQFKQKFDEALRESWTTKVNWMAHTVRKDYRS
UniProt O00459, whole entry, looked up: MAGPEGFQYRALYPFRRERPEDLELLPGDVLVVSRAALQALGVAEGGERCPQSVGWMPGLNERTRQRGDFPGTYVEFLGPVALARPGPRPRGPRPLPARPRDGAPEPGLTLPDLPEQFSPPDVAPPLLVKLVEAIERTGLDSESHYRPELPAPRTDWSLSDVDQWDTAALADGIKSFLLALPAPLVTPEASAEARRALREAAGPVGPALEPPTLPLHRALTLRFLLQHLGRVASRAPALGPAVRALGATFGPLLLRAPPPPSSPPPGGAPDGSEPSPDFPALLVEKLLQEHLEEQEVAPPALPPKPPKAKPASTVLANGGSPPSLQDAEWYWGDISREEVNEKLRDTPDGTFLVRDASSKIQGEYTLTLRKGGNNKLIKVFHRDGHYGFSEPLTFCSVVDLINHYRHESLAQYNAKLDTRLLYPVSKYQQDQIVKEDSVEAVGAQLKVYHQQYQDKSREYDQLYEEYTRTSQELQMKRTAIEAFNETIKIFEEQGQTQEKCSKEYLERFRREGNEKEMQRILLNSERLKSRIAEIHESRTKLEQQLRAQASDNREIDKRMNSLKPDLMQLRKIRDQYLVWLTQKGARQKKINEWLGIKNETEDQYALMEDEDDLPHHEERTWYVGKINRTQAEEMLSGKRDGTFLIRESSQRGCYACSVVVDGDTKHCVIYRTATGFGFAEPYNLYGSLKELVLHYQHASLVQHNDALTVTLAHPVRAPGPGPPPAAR
UniProt O95394: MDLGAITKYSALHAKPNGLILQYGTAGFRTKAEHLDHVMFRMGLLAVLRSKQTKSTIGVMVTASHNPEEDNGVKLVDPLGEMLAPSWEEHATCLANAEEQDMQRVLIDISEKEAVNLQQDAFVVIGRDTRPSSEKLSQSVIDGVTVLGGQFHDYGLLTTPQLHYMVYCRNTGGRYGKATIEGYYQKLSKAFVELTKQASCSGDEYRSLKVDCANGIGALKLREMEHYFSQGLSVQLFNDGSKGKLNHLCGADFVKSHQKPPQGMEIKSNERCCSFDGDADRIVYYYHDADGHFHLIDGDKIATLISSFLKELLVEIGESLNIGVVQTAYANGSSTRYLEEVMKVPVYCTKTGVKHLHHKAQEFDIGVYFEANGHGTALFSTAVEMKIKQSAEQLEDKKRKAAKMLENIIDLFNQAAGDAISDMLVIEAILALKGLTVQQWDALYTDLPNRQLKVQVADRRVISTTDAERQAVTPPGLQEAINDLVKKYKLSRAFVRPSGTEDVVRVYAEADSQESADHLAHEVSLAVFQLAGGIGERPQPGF
UniProt P35232: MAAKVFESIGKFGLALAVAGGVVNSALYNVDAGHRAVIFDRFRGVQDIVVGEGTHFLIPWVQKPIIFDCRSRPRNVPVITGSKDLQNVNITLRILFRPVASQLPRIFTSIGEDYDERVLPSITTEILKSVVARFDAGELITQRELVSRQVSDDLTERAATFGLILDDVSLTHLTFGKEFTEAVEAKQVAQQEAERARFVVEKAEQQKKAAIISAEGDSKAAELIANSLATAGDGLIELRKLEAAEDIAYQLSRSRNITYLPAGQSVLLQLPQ
UniProt A6NDG6: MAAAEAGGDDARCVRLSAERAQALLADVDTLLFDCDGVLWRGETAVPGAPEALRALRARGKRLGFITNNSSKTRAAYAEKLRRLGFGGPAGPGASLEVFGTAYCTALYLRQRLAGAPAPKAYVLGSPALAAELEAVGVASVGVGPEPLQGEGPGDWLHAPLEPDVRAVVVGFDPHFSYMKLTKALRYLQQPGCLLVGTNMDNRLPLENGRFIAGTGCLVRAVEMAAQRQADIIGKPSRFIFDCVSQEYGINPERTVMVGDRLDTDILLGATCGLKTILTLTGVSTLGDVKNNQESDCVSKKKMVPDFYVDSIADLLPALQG

Tubastatin A = compound: CN1CCc2c(c3ccccc3n2Cc2ccc(C(=O)NO)cc2)C1 [Tubastatin A]
Summary of the method: as §1

[1] = compound: CNC(=O)C1=CC=CC=C1NC2=NC(=NC=C2Cl)NC3=C(C=C(C=C3)N4CCOCC4)OC
Summary of the method: as §1

defactinib = compound: CNC(=O)c1ccc(Nc2ncc(C(F)(F)F)c(NCc3nccnc3N(C)S(C)(=O)=O)n2)cc1 [defactinib]
Summary of the method: as §1

[2] = compound: CNc1nc(-c2ccc3c(N)n[nH]c3c2)cc(N2C[C@@H](C(=O)NC3CCCCC3)CC[C@H]2C)n1
Summary of the method: as §1

encorafenib = compound: COC(=O)N[C@@H](C)CNc1nccc(-c2cn(C(C)C)nc2-c2cc(Cl)cc(NS(C)(=O)=O)c2F)n1 [encorafenib]
Summary of the method: as §1

[3] = compound: COC(=O)[C@H](CCSC)NC(=O)C1=C(C=C(C=C1)NC[C@H](CS)N)C2=CC=CC=C2
Summary of the method: as §1

alisertib = compound: COc1cc(Nc2ncc3c(n2)-c2ccc(Cl)cc2C(c2c(F)cccc2OC)=NC3)ccc1C(=O)O [alisertib]
Summary of the method: as §1

[4] = compound: COc1cc2nc(-c3cc(F)ccc3O)nc(N[C@@H]3CNC[C@H]3C(C)(C)O)c2cc1OC
Summary of the method: as §1

gefitinib = compound: COc1cc2ncnc(Nc3ccc(F)c(Cl)c3)c2cc1OCCCN1CCOCC1 [gefitinib]
Summary of the method: as §1

Target	log2 fold change (alvocidib)	log2 fold change (Tubastatin A)	log2 fold change [1]	log2 fold change (defactinib)	log2 fold change [2]	log2 fold change (encorafenib)	log2 fold change [3]	log2 fold change (alisertib)	log2 fold change [4]	log2 fold change (gefitinib)
PLCB3 (UniProt Q01970)	inactive: 0.012	inactive: 0.028	inactive: -0.006	inactive: 0.001	inactive: 0	inactive: -0.008	inactive: 0.059	inactive: -0.013	inactive: -0.001	inactive: 0.036
PICALM (UniProt Q13492)	inactive: -0.021	inactive: 0.029	inactive: -0.032	inactive: -0.037	inactive: -0.033	inactive: 0.042	inactive: 0.014	inactive: 0.008	inactive: 0.017	inactive: 0.008
PIKFYVE (UniProt Q9Y2I7)	inactive: -0.049	inactive: -0.126	inactive: 0.032	inactive: 0.078	inactive: -0.031	inactive: 0.044	inactive: 0.088	inactive: 0.031	inactive: 0.004	inactive: -0.005
PLCL1 (UniProt Q15111)	inactive: -0.039	inactive: -0.025	inactive: 0.044	inactive: 0.052	inactive: 0.151	inactive: 0.033	inactive: 0.017	inactive: 0.018	inactive: -0.006	inactive: -0.01
PLBD2 (UniProt Q8NHP8)	inactive: -0.003	inactive: 0.042	inactive: 0.008	inactive: -0.055	inactive: 0.031	inactive: 0.04	inactive: -0.034	inactive: -0.023	inactive: -0.004	inactive: -0.041
PIN4 isoform 2 (UniProt Q9Y237)	inactive: 0.005	inactive: 0.033	inactive: -0.013	inactive: 0	inactive: 0.017	inactive: -0.02	inactive: -0.034	inactive: -0.037	inactive: -0.016	inactive: -0.023
PIR (UniProt O00625)	inactive: 0.006	inactive: 0.019	inactive: -0.011	inactive: -0.032	inactive: 0.012	inactive: 0.003	inactive: -0.07	inactive: 0.016	inactive: -0.008	inactive: -0.012
PKM (UniProt P14618)	inactive: -0.028	inactive: 0.012	inactive: -0.016	inactive: -0.009	inactive: 0.129	inactive: 0.013	inactive: -0.017	inactive: 0.005	inactive: 0.01	inactive: -0.005
PIP (UniProt P12273)	inactive: 0.041	inactive: 1.07	inactive: -0.273	inactive: 0.145	inactive: -0.628	inactive: -0.384	inactive: 0.626	inactive: -0.122	inactive: -0.004	inactive: 0.056
PI4KA (UniProt P42356)	inactive: -0.006	inactive: -0.165	inactive: 0.035	inactive: 0.006	inactive: -0.029	inactive: 0.026	inactive: -0.005	inactive: 0.028	inactive: 0.019	inactive: 0
PIP4P1 isoform 2 (UniProt Q86T03)	inactive: -0.018	inactive: 0.077	inactive: 0.045	inactive: 0.014	inactive: -0.028	inactive: -0.03	inactive: -0.072	inactive: -0.047	inactive: 0.017	inactive: 0.011
PITHD1 (UniProt Q9GZP4)	inactive: -0.025	inactive: 0.045	inactive: -0.024	inactive: -0.034	inactive: 0.075	inactive: -0.033	inactive: -0.048	inactive: -0.028	inactive: 0.051	inactive: -0.008
PGM2L1 (UniProt Q6PCE3)	inactive: -0.027	inactive: 0.016	inactive: -0.046	inactive: -0.028	inactive: -0.012	inactive: 0.002	inactive: 0.046	inactive: 0.004	inactive: -0.004	inactive: 0.029
PKN1 isoform 2 (UniProt Q16512)	inactive: -0.036	inactive: -0.056	inactive: -0.001	inactive: -0.079	inactive: -0.003	inactive: 0.075	inactive: 0.116	inactive: -0.009	inactive: -0.1	inactive: -0.005
PLD3 (UniProt Q8IV08)	inactive: -0.017	inactive: 0.003	inactive: 0.008	inactive: -0.022	inactive: -0.024	inactive: 0.015	inactive: 0.018	inactive: -0.005	inactive: -0.006	inactive: 0.024
PHGDH (UniProt O43175)	inactive: 0.028	active: -0.415	inactive: -0.081	inactive: 0.022	inactive: 0.018	inactive: 0.006	active: -0.439	inactive: 0.004	inactive: 0.006	inactive: -0.016
PIK3CB (UniProt P42338)	inactive: -0.002	inactive: -0.123	inactive: 0.056	inactive: -0.044	inactive: -0.013	inactive: -0.02	inactive: -0.126	inactive: -0.01	inactive: -0.011	inactive: -0.019
PGS1 (UniProt Q32NB8)	inactive: -0.019	inactive: -0.11	inactive: -0.065	inactive: 0.05	inactive: -0.03	inactive: -0.03	inactive: -0.183	inactive: 0.031	inactive: -0.14	inactive: -0.079
PLCD1 isoform 2 (UniProt P51178)	inactive: 0.007	inactive: -0.054	inactive: 0.008	inactive: -0.024	inactive: -0.039	inactive: 0	inactive: 0.013	inactive: -0.021	inactive: -0.022	inactive: -0.016
PLAA (UniProt Q9Y263)	inactive: -0.018	inactive: -0.04	inactive: -0.016	inactive: 0.003	inactive: -0.006	inactive: 0.011	inactive: -0.016	inactive: -0.002	inactive: -0.012	inactive: -0.04
PJA2 (UniProt O43164)	inactive: -0.002	inactive: -0.044	inactive: 0.034	inactive: 0.004	inactive: -0.004	inactive: 0.012	inactive: -0.058	inactive: -0.016	inactive: 0.004	inactive: 0.016
PIK3C3 (UniProt Q8NEB9)	inactive: -0.081	inactive: 0.02	inactive: -0.019	inactive: -0.004	inactive: -0.046	inactive: -0.016	inactive: 0.015	inactive: 0.012	inactive: 0.048	inactive: -0.037
PHKB isoform 3 (UniProt Q93100)	inactive: 0.04	inactive: -0.099	inactive: 0.223	inactive: -0.006	inactive: -0.018	inactive: -0.019	inactive: 0.015	inactive: 0.006	inactive: 0.107	inactive: 0.03
PIK3R2 (UniProt O00459)	inactive: 0.023	inactive: -0.086	inactive: 0.027	inactive: 0.017	inactive: -0.009	inactive: 0.009	inactive: -0.225	inactive: 0.008	inactive: 0.02	inactive: -0.052
PGM3 isoform 4 (UniProt O95394)	inactive: 0.045	inactive: -0.051	inactive: 0.001	inactive: -0.004	inactive: -0.053	inactive: -0.025	inactive: 0.033	inactive: -0.001	inactive: -0.005	inactive: -0.024
PIEZO1 (UniProt Q92508)	inactive: -0.006	inactive: 0.041	inactive: 0.018	inactive: -0.028	inactive: 0.004	inactive: 0.019	inactive: -0.044	inactive: -0.024	inactive: 0.016	inactive: 0.041
PHB (UniProt P35232)	inactive: 0.017	inactive: 0.013	inactive: -0.011	inactive: 0.016	inactive: -0.017	inactive: 0.009	inactive: -0.03	inactive: 0.007	inactive: -0.02	inactive: -0.054
PLA2G15 (UniProt Q8NCC3)	inactive: 0.002	inactive: 0.025	inactive: 0	inactive: 0.037	inactive: -0.029	inactive: 0.071	inactive: -0.026	inactive: -0.007	inactive: 0.014	inactive: -0.003
PGP (UniProt A6NDG6)	inactive: -0.023	inactive: 0.024	inactive: -0.019	inactive: 0.016	inactive: 0.034	inactive: -0.009	inactive: -0.047	inactive: -0.045	inactive: -0.052	inactive: -0.077
PGRMC1 (UniProt O00264)	inactive: -0.026	inactive: 0.01	inactive: -0.022	inactive: 0.02	inactive: -0.014	inactive: 0.006	active: -0.258	inactive: 0.006	inactive: 0.006	inactive: 0.03

Given as a markdown table: entries from further up.

| Target | log2 fold change (alvocidib) | log2 fold change (Tubastatin A) | log2 fold change [1] | log2 fold change (defactinib) | log2 fold change [2] | log2 fold change (encorafenib) | log2 fold change [3] | log2 fold change (alisertib) | log2 fold change [4] | log2 fold change (gefitinib) |
| --- | --- | --- | --- | --- | --- | --- | --- | --- | --- | --- |
| PKM (UniProt P14618) | inactive: -0.028 | inactive: 0.012 | inactive: -0.016 | inactive: -0.009 | inactive: 0.129 | inactive: 0.013 | inactive: -0.017 | inactive: 0.005 | inactive: 0.01 | inactive: -0.005 |
| PLA2G15 (UniProt Q8NCC3) | inactive: 0.002 | inactive: 0.025 | inactive: 0 | inactive: 0.037 | inactive: -0.029 | inactive: 0.071 | inactive: -0.026 | inactive: -0.007 | inactive: 0.014 | inactive: -0.003 |

From the supplement of paper PMC10849652
